HELM strings list residues between dots; [ac] is acetyl, [am] amide, other brackets name non-standard units.
Assay: Boc solid-phase peptide synthesis; methylbenzhydrylamine resin
Settings: whole synthesis, reverse phase HPLC

## PEPTIDE1{[pGlu].H.W.S.Y.G.L.S.P.G.[am]}$$$$V2.0
  final HPLC purity: >97% pure
